{"source": "PubChem BioAssay AID1259308 | NCATS | 2017", "aim": "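Knock-downs that increase output of a recombinant reporter protein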 (primary screen)", "cell system": "human HEK293 embryonic kidney cells stably expressing firefly luciferase (HEK-CMV-Luc2-Hygro)", "reagents": "single siRNA against human genes, 0.8 pmol siRNA per well", "timing": "72 h", "detection": "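Luciferase light (ONE-Glo) measured on one replicate plate set and viability (CellTiter-Glo) on the other, scaled to a negative control siRNA, with robust z-scores and luciferase per cell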", "scale": "total luciferase, z-score and total luciferase, % of control: higher = more reporter protein produced", "hit rule": "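An siRNA counts as active if its total luciferase robust z-score exceeds 3; genes with two or more such siRNAs out of three were retested with fresh siRNAs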", "meaning of the calls": "active = raised luciferase; inactive = no rise", "note": "This is an unselected part of about 59,000 reagents tested. About 1,510 of all reagents (2.6%) were called active. 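Calls use total luciferase alone and ignore viability, so some active siRNAs may act by altering cell number.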 Reagents against one gene are numbered here. Not all columns of the deposit are shown."}
{"gene": "MEIKIN", "reagent": 1, "total luciferase, z-score": -0.446, "total luciferase, % of control": 73, "Call": "inactive"}
{"gene": "MEIKIN", "reagent": 2, "total luciferase, z-score": 0.342, "total luciferase, % of control": 88.7, "Call": "inactive"}
{"gene": "MEIKIN", "reagent": 3, "total luciferase, z-score": -0.276, "total luciferase, % of control": 76.4, "Call": "inactive"}
{"gene": "VRTN", "reagent": 1, "total luciferase, z-score": 0.445, "total luciferase, % of control": 90.7, "Call": "inactive"}
{"gene": "VRTN", "reagent": 2, "total luciferase, z-score": 0.589, "total luciferase, % of control": 93.6, "Call": "inactive"}
{"gene": "VRTN", "reagent": 3, "total luciferase, z-score": 1.19, "total luciferase, % of control": 106, "Call": "inactive"}
{"gene": "ZNF148", "reagent": 1, "total luciferase, z-score": -0.65, "total luciferase, % of control": 69, "Call": "inactive"}
{"gene": "ZNF148", "reagent": 2, "total luciferase, z-score": -0.0122, "total luciferase, % of control": 81.6, "Call": "inactive"}
{"gene": "ZNF148", "reagent": 3, "total luciferase, z-score": 2.7, "total luciferase, % of control": 136, "Call": "inactive"}

An excerpt from above, reduced to “total luciferase, % of control”:
VRTN #2 = 93.6
VRTN #3 = 106

Additional reagents follow.
{"gene": "MKS1", "reagent": 1, "total luciferase, z-score": -0.256, "total luciferase, % of control": 76.8, "Call": "inactive"}
{"gene": "MKS1", "reagent": 2, "total luciferase, z-score": -2.66, "total luciferase, % of control": 28.9, "Call": "inactive"}
{"gene": "MKS1", "reagent": 3, "total luciferase, z-score": 0.179, "total luciferase, % of control": 85.5, "Call": "inactive"}
{"gene": "CD9", "reagent": 1, "total luciferase, z-score": -1.47, "total luciferase, % of control": 52.6, "Call": "inactive"}
{"gene": "CD9", "reagent": 2, "total luciferase, z-score": -0.445, "total luciferase, % of control": 73, "Call": "inactive"}
{"gene": "CD9", "reagent": 3, "total luciferase, z-score": 0.257, "total luciferase, % of control": 87, "Call": "inactive"}
{"gene": "RPL24", "reagent": 1, "total luciferase, z-score": -3.2, "total luciferase, % of control": 18.1, "Call": "inactive"}
{"gene": "RPL24", "reagent": 2, "total luciferase, z-score": -2.14, "total luciferase, % of control": 39.3, "Call": "inactive"}
{"gene": "RPL24", "reagent": 3, "total luciferase, z-score": -1.96, "total luciferase, % of control": 42.9, "Call": "inactive"}
{"gene": "MYO1G", "reagent": 1, "total luciferase, z-score": 1.56, "total luciferase, % of control": 113, "Call": "inactive"}
{"gene": "MYO1G", "reagent": 2, "total luciferase, z-score": 0.85, "total luciferase, % of control": 98.8, "Call": "inactive"}
{"gene": "MYO1G", "reagent": 3, "total luciferase, z-score": -0.289, "total luciferase, % of control": 76.1, "Call": "inactive"}
